Assay [1] addresses HA-AKAP12 (1-938) (human) (UniProt Q02952). Nature of the assay: SDS-PAGE in 8 M urea; whole-cell lysates of HEK293 cells treated with and resolved on SDS-PAGE in the presence of 8 M urea; immunoblot with anti-HA or anti-AKAP12.
In assay [2] the target is HA-AKAP12 (840-1782) (human) (UniProt Q02952). Described as above.

No constants are given. Whether binding was seen depends on the method and setting. Tags and fused reporters may be left off the sequences shown.

B1: HA-AKAP12 (1-938) (domain or fragment, human, UniProt Q02952 1-938, looked up)
chain: MGAGSSTEQRSPEQPPEGSSTPAEPEPSGGGPSAEAAPDTTADPAIAASDPATKLLQKNGQLSTINGVAEQDELSLQEGDLNGQKGALNGQGALNSQEEEEVIVTEVGQRDSEDVSKRDSDKEMATKSAVVHDITDDGQEETPEIIEQIPSSESNLEELTQPTESQANDIGFKKVFKFVGFKFTVKKDKTEKPDTVQLLTVKKDEGEGAAGAGDHKDPSLGAGEAASKESEPKQSTEKPEETLKREQSHAEISPPAESGQAVEECKEEGEEKQEKEPSKSAESPTSPVTSETGSTFKKFFTQGWAGWRKKTSFRKPKEDEVEASEKKKEQEPEKVDTEEDGKAEVASEKLTASEQAHPQEPAESAHEPRLSAEYEKVELPSEEQVSGSQGPSEEKPAPLATEVFDEKIEVHQEEVVAEVHVSTVEERTEEQKTEVEETAGSVPAEELVEMDAEPQEAEPAKELVKLKETCVSGEDPTQGADLSPDEKVLSKPPEGVVSEVEMLSSQERMKVQGSPLKKLFTSTGLKKLSGKKQKGKRGGGDEESGEHTQVPADSPDSQEEQKGESSASSPEEPEEITCLEKGLAEVQQDGEAEEGATSDGEKKREGVTPWASFKKMVTPKKRVRRPSESDKEDELDKVKSATLSSTESTASEMQEEMKGSVEEPKPEEPKRKVDTSVSWEALICVGSSKKRARRGSSSDEEGGPKAMGGDHQKADEAGKDKETGTDGILAGSQEHDPGQGSSSPEQAGSPTEGEGVSTWESFKRLVTPRKKSKSKLEEKSEDSIAGSGVEHSTPDTEPGKEESWVSIKKFIPGRRKKRPDGKQEQAPVEDAGPTGANEDDSDVPAVVPLSEYDAVEREKMEAQQAQKSAEQPEQKAATEVSKELSESQVHMMAAAVADGTRAATIIEERSPSWISASVTEPLEQVEAEAALLTEEVLE
notes: AKAP12, human, N-terminal fragment, residues 1-938; also called AKAP12 N-terminal (1-938) fragment; source: HEK293, transfected (pcDNA3.1), in whole-cell lysate
Take B1: the binding entry in assay [1] is recorded as “no binding (condition: with 8 M urea)”.

B2: HA-AKAP12 (840-1782) (domain or fragment, human, UniProt Q02952 840-1782, looked up)
chain: DSDVPAVVPLSEYDAVEREKMEAQQAQKSAEQPEQKAATEVSKELSESQVHMMAAAVADGTRAATIIEERSPSWISASVTEPLEQVEAEAALLTEEVLEREVIAEEEPPTVTEPLPENREARGDTVVSEAELTPEAVTAAETAGPLGAEEGTEASAAEETTEMVSAVSQLTDSPDTTEEATPVQEVEGGVPDIEEQERRTQEVLQAVAEKVKEESQLPGTGGPEDVLQPVQRAEAERPEEQAEASGLKKETDVVLKVDAQEAKTEPFTQGKVVGQTTPESFEKAPQVTESIESSELVTTCQAETLAGVKSQEMVMEQAIPPDSVETPTDSETDGSTPVADFDAPGTTQKDEIVEIHEENEVASGTQSGGTEAEAVPAQKERPPAPSSFVFQEETKEQSKMEDTLEHTDKEVSVETVSILSKTEGTQEADQYADEKTKDVPFFEGLEGSIDTGITVSREKVTEVALKGEGTEEAECKKDDALELQSHAKSPPSPVEREMVVQVEREKTEAEPTHVNEEKLEHETAVTVSEEVSKQLLQTVNVPIIDGAKEVSSLEGSPPPCLGQEEAVCTKIQVQSSEASFTLTAAAEEEKVLGETANILETGETLEPAGAHLVLEEKSSEKNEDFAAHPGEDAVPTGPDCQAKSTPVIVSATTKKGLSSDLEGEKTTSLKWKSDEVDEQVACQEVKVSVAIEDLEPENGILELETKSSKLVQNIIQTAVDQFVRTEETATEMLTSELQTQAHVIKADSQDAGQETEKEGEEPQASAQDETPITSAKEESESTAVGQAHSDISKDMSEASEKTMTVEVEGSTVNDQQLEEVVLPSEEEGGGAGTKSVPEDDGHALLAERIEKSLVEPKEDEKGDDVDDPENQNSALADTDASGGLTKESPDTNGPKQKEKEDAQEVELQEGKVHSESDKAITPQAQEELQKQERESAKSELTES
notes: AKAP12, human, C-terminal fragment, residues 840-1782; also called AKAP12 C-terminal (840-1782) fragment; source: HEK293, transfected (pcDNA3.1), in whole-cell lysate
On to B2, for which the binding entry in assay [2] is given as “no binding (condition: with 8 M urea)”.
